From paper PMC7578833
Results are given in words; binding and its absence hold for the method and conditions named. In cells and extracts the contact can be indirect. Here binding means that the protein was enriched with, or labelled near, the bait; the list need not be complete.

Biological target: Strep-tagged PDE2A2
Test: affinity purification with mass spectrometry; Strep-tagged PDE2A2 (control: Strep-tagged EF-Ts) overexpressed in HT-4 mouse neuroblastoma cells; immunoprecipitated from lysate with anti-StrepMab-Immo antibody coupled to Dynabeads Protein G; label-free quantification (MaxQuant), two biological replicates, t-test at 10% FDR

binding	Binder
binds	SAMM50, endogenous in HT-4 cells (protein, UniProt Q8BGH2 1-469) MGTVHARSLEPLPSSGTDFGALGEEAEFVEVEPEAKQEILENKDVVVQHVHFDGLGRTKDDIIICEIGEVFKAKNLIEVMRRSHEAREKLLRLGIFRQVDVLIDTCHGEDALPNGLDVTFEVTELRRLTGSYNTMVGNNEGSMVLGLKLPNLLGRAEKVTFQFSYGTKETSYGLSFFKPQPGNFERNFSVNLYKVTGQFPWSSLRETDRGVSAEYSFPLWKTSHTVKWEGVWRELGCLSRTASFAVRKESGHSLKSSLSHAMVIDSRNSSILPRRGALFKVNQELAGYTGGDVSFIKEDFELQLNKPLALDSVFSTSLWGGMLVPIGDKPSSIADRFYLGGPTSVRGFSMHSIGPQSEGDYLGGEAYWAGGLHLYTPLPFRPGQGGFGELFRTHFFLNAGNLCNLNYGEGPKAHIRKLAECIRWSYGAGVVLRLGNIARLELNYCIPMGVQGGDRICDGVQFGAGIRFL
binds	Metaxin-2 (MTX-2), endogenous in HT-4 cells (protein, UniProt O88441 1-263) MSLVAEAFVSQIAATEPWPENATLYQQLRGEQILLSDNAASLAVQAFLQMCNLPVKVVCRANAEYMSPSGKVPFIHVGNQVVSELGPIVQFVKAKGHSLSDGLDEVQKAEMKAYMELVNNMLLTAELYLQWCDEATVGEITIARYGSPYPWPLNHILAYQKQWEVKRKMKAIGWGNKTLDQVLEDVDQCCQALSQRLGTQPYFFNKQPTELDALVFGHLYTILTTQLTSDELSEKVKNYSNLLAFCRRIEQHYFEDWGKGRLS
binds	MIC19 (ChChD3), endogenous in HT-4 cells (protein, UniProt Q9CRB9 1-227) MGGTASTRRVTFEADENENITVVKGIRLSENVIDRMKESSPSGSKSQRYSSVYGASVSDEDLKRRVAEELALEQAKKESEHQRRLKQARDLERERAAANEQLTRAVLRERISSEEERMKAKHLARQLEEKDRVMRKQDAFYKEQLARLEERSSEFYKVTTEEYQKAAEEVEAKFKRYEYHPVCADLQTKILQCYRQNTQQTLSCSALASQYMHCVNHAKQSMLEKGG
